# Laboratory results from PubChem BioAssay AID493014 (National Center for Advancing Translational Sciences (NCATS), 2011).
# About 170 (0.05%) of roughly 340,000 compounds were called active. Inconclusive means that the source gave no clear call. Such entries were picked first, then a sample of the others. Calls follow the shape of the dose curve; as a rule, active = well fitted inhibition curve with a large enough effect in the signal ratio, with a control signal flat (not every such curve was filed as active); inconclusive = small, poorly fitted or top-dose-only effect, or effect the other way, or a change in a side signal; inactive = flat fitted curve, though single readings scatter; the % refers to the signal ratio. Potencies of inconclusive entries are doubtful fits and often do not repeat.
# Assay: qHTS Assay to Find Inhibitors of Chronic Active B-Cell Receptor Signaling;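 as to activity change, negative = inhibition: plate controls were basal doxycycline-induced cells for no effect and cells given 10 µM MG132 for full effect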
# Details: ABC-DLBCL IkBa-CBG/CBR reporter, luminescence ratio (green luciferase fused to IkBa over red control in TMD8 lymphoma cells), 4 h; activity change, negative = inhibition: at 46.1 µM (top of the series)
# Outline: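 Compounds up to 46 uM were incubated four hours with TMD8 cells whose green CBG68 luciferase is fused to IkappaBalpha; red CBR luminescence normalised the signal, and concentration-effect curves were fitted to fusion, red and ratio data.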
# Potency is read from the fitted curve at half-maximal effect.
SMILES,"activity change, negative = inhibition",Potency
O=C1CC(C(F)(F)F)=NN1,inconclusive: 4.86%,
Cc1c(NS(=O)(=O)c2cccc(C(=O)N3CCC(C)CC3)c2)c(=O)n(-c2ccccc2)n1C,inconclusive: -12.8%,
Cn1ccsc1=NC(=O)c1ccc(S(=O)(=O)C(F)F)cc1,inactive,
Cc1ccc(S(=O)(=O)C2(C(=O)Nc3ccc(C(C)C)cc3)CC2)cc1,inactive,
CCCC(=O)N(CCN1CCOCC1)c1nc2c(F)cc(F)cc2s1,inactive,
N=c1n(Cc2ccccc2)c2ccccc2n1CC(O)c1ccco1 (configuration not stated),inactive,
Nn1c(SCc2ccccc2)nnc1-c1ccccn1,,"inconclusive: 35.5 µM [falling, single point]"
O=C(O)CCC(C(=O)O)n1c(O)c(C2=c3ccccc3=NC2=O)sc1=S (configuration not stated),inactive,
CCNC(=S)NC1CC2CCCC(C1)N2Cc1ccc(C)cc1 (configuration not stated),inactive,
CC(C)(C)C1CCc2c(sc(NC(=O)CSc3ncn[nH]3)c2C#N)C1 (configuration not stated),,"inconclusive: 10.3 µM [rising, partial curve, poor fit]"
CCCOc1cccc(C(=O)NC(=S)Nc2ccccc2)c1,inactive,
CC(Sc1nc2ccccc2c(=O)n1C)C(=O)N(C)C1CCCCC1 (configuration not stated),,"inconclusive: 25.9 µM [rising, partial curve, poor fit]"
CCC(=O)Nc1ccc(N/C(N)=N/c2nc(C)cc(C)n2)cc1,inconclusive: 9.44%,
O=C(Cc1cn2ccsc2n1)OCc1ccccc1,,"inconclusive: 18.4 µM [falling, single point]"
Cc1ccc(-c2[nH]nc(N)c2N=Nc2cccc(Cl)c2C)cc1,,"inconclusive: 5.01 µM [rising, partial curve, poor fit]"
Cc1ccc(S(=O)(=O)c2nnn3c2nc(N2CCCCC2)c2ccccc23)cc1,inactive,
Cc1nn(Cc2c(F)c(F)c(F)c(F)c2F)c(C)c1NC(=O)c1cccc(COc2ccc(Cl)cc2)c1,inactive,
CC(=N\NC(=O)c1cc(Br)ccc1O)/C(=N/O)C(=O)Nc1ccccc1,,"inconclusive: 11.2 µM [falling, partial curve]"
O=C1CN(C(=O)COC(=O)CCc2ccccc2)c2ccccc2N1,inconclusive: 15.8%,
C/C(=N\OCC(=O)N/N=C/c1ccccc1)c1cccs1,inconclusive: 1.14%,
Cc1nc2sccn2c1-c1csc(NCc2ccccc2)n1,inconclusive: 3.58%,

# Among those listed so far, these contain an NH in an aromatic ring:
SMILES,"activity change, negative = inhibition",Potency
CC(C)(C)C1CCc2c(sc(NC(=O)CSc3ncn[nH]3)c2C#N)C1 (configuration not stated),,"inconclusive: 10.3 µM [rising, partial curve, poor fit]"
Cc1ccc(-c2[nH]nc(N)c2N=Nc2cccc(Cl)c2C)cc1,,"inconclusive: 5.01 µM [rising, partial curve, poor fit]"

# Remaining list, next part.

SMILES,"activity change, negative = inhibition",Potency
Cc1cc(C)c(S(=O)(=O)N2CCN(C(=O)c3ccc(-n4cncn4)c([N+](=O)[O-])c3)CC2)c(C)c1,inconclusive: 6.4%,
CCN(CC)C(=O)CSc1nc2c(sc(=S)n2-c2ccccc2)c(=O)n1-c1ccccc1OC,inconclusive: -5.26%,
CN(C)C(=O)CSc1nc(-c2ccccc2)nc2c1CCCC2,inactive,
O=c1cc(N2CCOCC2)[nH]c(=O)n1-c1ccc(Cl)cc1,,"inconclusive: 18.4 µM [falling, partial curve, poor fit]"
O=C(OCc1nc2ccccc2s1)c1cnccn1,inconclusive: 14.2%,
Cc1cc(C)cc(N(CC(=O)NCc2ccco2)C(=O)CCC(=O)Nc2nccs2)c1,,"inconclusive: 31.6 µM [falling, single point]"
COc1ccc(CCNC(=O)C2CCN(Cc3nc(-c4ccccc4C)oc3C)CC2)cc1OC,,"inconclusive: 11.2 µM [falling, partial curve, poor fit]"
N#CCCSc1ccccc1NC(=O)c1cc(=O)c2ccccc2o1,,"inconclusive: 7.94 µM [falling, partial curve]"
CCCCSc1nnc2c(n1)[nH]c1ccccc12,inconclusive: 17.3%,
CCOc1c(C)cnc2c1c(=O)n(Cc1ccccc1Cl)c(=O)n2C,inactive,
CCC/C=N/NC(=O)c1cc(Br)ccc1O,inconclusive: 205%,
CN(C)CCCN(C(=O)c1ccc(C(=O)c2ccccc2)cc1)c1nc2ccc(F)cc2s1,inactive,
O=C(O)c1cc(NS(=O)(=O)c2ccc3ccccc3c2)ccc1O,inactive,
CCOC(=O)C1CCN(C(=O)Cn2cc(C#N)c3ccccc32)CC1,inconclusive: -11.3%,
O=C(CSCc1ccc(Cl)cc1)N1CCN(Cc2ccc3c(c2)OCO3)CC1,inconclusive: -16.1%,
COc1ccc(-c2c/c(=N\c3nc(-c4ccccc4)c(C)s3)c3ccccc3o2)cc1O,,"inconclusive: 6.51 µM [falling, single point]"
CCN(C(=O)COc1cccc(-n2cnnn2)c1)C1CCS(=O)(=O)C1 (configuration not stated),inconclusive: -15.5%,
CCN(CC1CCCN(CCc2cccc(OC)c2)C1)C(=O)C=C(C)C (configuration not stated),inactive,
O=C1/C(=C\c2ccc(Br)o2)Cc2ccccc21,inactive,
COc1cc(C(=O)NC(CCSC)C(=O)OCC(=O)NC(=O)C2CCCCC2)cc(OC)c1OC (configuration not stated),,"inconclusive: 20 µM [falling, partial curve, poor fit]"
Cc1ccc2nc(NC(=O)CCn3cccc3)sc2c1,,"inconclusive: 35.5 µM [rising, single point]"

SMILES,"activity change, negative = inhibition",Potency
N#CCC(CNc1ncc(C(F)(F)F)cc1Cl)OC(=O)c1ccc(Cl)cc1 (configuration not stated),inconclusive: -28.7%,
COc1cc(NC(=O)Cn2nnc(-c3ccncc3)n2)cc(OC)c1,inconclusive: 1.81%,
CC(=O)/C(N)=N/Nc1cccc(Cl)c1,inconclusive: 1.3%,
O=C(/C=C/c1ccc(F)cc1)N1CCc2ccccc2C1,,"inconclusive: 16.4 µM [falling, single point]"
O=C(CCCn1nnnc1CN1CCOCC1)N1CCC(c2ccccc2Cl)C1 (configuration not stated),inactive,
COc1ccc(CNC(=S)Nc2ccc(-c3ccccc3)cc2)cc1,inactive,
C=CCn1c(SCC(=O)NC2CCCC2)nc2scc(-c3ccco3)c2c1=O,inconclusive: 22.7%,
CN1CCN(S(=O)(=O)c2ccc(N3CCN(S(=O)(=O)/C=C/c4ccccc4)CC3)nc2)CC1,inactive,
Cc1onc(-c2ccccc2)c1C(=O)NC(=S)NNC(=O)c1cc(-c2ccc(F)cc2)n[nH]1,,"inconclusive: 35.5 µM [rising, single point]"
CN1CCN(C=Nc2nc3ccccc3nc2N2CCCC2)CC1,inconclusive: -9.63%,
CC[C@H](C)[C@@H]1NC(=O)c2cc([N+](=O)[O-])cc(I)c2NCC[C@@H](C(N)=O)NC(=O)[C@H](CCCN=C(N)N)NC1=O,inactive,
CCc1ccccc1N1CC(C(=O)Nc2nccs2)CC1=O (configuration not stated),inactive,
CC1=C(C(=O)Nc2ccccc2)C2(CCCCC2)C(C#N)=C(SCC(N)=O)N1,,"inconclusive: 25.9 µM [rising, single point]"
Cc1ccc(NC(=O)N[C@H](C(=O)O)C(C)C)c(C)c1,inactive,
CN(C)Cc1nc2ccccc2c(=O)n1Cc1nc(-c2cc3ccccc3o2)cs1,inconclusive: -0.0964%,
CC1(C2(O)CCCCC2)NCCc2ccccc21 (configuration not stated),inconclusive: -8.82%,
Cc1ccc(-n2ccnc2SCC(=O)N(CC(C)C)C2CCS(=O)(=O)C2)c(C)c1 (configuration not stated),inactive,
CCc1cccc(Nc2c3c(nc4ncnn24)CCC3)c1,inconclusive: -21%,
COc1cccc(CNC(=S)Nc2cc(C)cc(C)c2)c1,inactive,
CCCCn1c2nc3ccccc3nc2c2c(=N)oc(C)nc21,inconclusive: -5.2%,
CCn1c(SCC(=O)Nc2nc3ccc(OC)cc3s2)nnc1-c1ccoc1C,inconclusive: -10.4%,

SMILES,"activity change, negative = inhibition",Potency
Cc1nn(-c2ccccn2)c2c1C(c1ccccn1)C1=C(CCCC1=O)N2 (configuration not stated),inconclusive: -27.8%,
CCOC(=O)c1ccccc1NC(=O)c1cn(CC)c2nc(C)ccc2c1=O,,"inconclusive: 25.1 µM [falling, single point]"
CCCCN1C(=O)C(NC(C)=O)c2cc(Br)ccc21 (configuration not stated),inconclusive: -0.416%,
CC(C)c1cc(C(=O)N/N=C/c2ccco2)n[nH]1,inconclusive: -19.7%,
Cc1cc(C)cc(-n2c(C)cc(/C=N/NC(=O)CN(c3c(C)cccc3C)S(C)(=O)=O)c2C)c1,inactive,
CCc1ccc(S(=O)(=O)NCCOc2cccc3cccnc23)cc1,inconclusive: -10.1%,
C=CCn1c(C)cc(C(=O)COC(=O)/C=C/c2cccc(OC)c2)c1C,inconclusive: 7.18%,
CC(=O)c1cc(Cc2csc(C(C)=O)c2)cs1,inconclusive: -2.41%,
O=C(CSc1ccc(-c2ccc(-n3cccn3)cc2)nn1)Nc1ccccc1F,inactive,
O=C(O)/C=C/c1ccc(S(=O)(=O)N2CCN(CCN3C(=O)C4C5C=CC(C5)C4C3=O)CC2)cc1 (configuration not stated),inconclusive: 0.511%,
C[C@@H](NC(=O)c1cc2c([nH]c3ccccc32)c(-c2ccccc2)n1)C(=O)O,inactive,
O=C(Nc1nc(-c2ccccc2)ns1)c1ccncc1,,"inconclusive: 11.2 µM [falling, partial curve]"
Clc1ccc(-c2nnc(CCc3ccccc3)o2)c(Cl)c1,inconclusive: 10.8%,
COC(=O)CCCC(=O)N1CCOCCN(C(=O)CCCC(=O)OC)CCOCC1,inconclusive: 0.681%,
Cc1ccccc1NC(=S)N(C)C1(c2ccccc2Cl)CCCCC1=O (configuration not stated),,"inconclusive: 14.1 µM [falling, partial curve, poor fit]"
Brc1ccc(-c2csc(NNC3=NCCCCC3)n2)cc1,inconclusive: 10.2%,
Cc1cs/c(=N\N=C\c2ccc(O)cc2)n1Cc1ccco1,inconclusive: -25.8%,
Cc1ccccc1NC(=O)Cc1nc(COC(=O)c2cc([N+](=O)[O-])ccc2NCCO)cs1,,"inconclusive: 14.6 µM [falling, partial curve]"
O=C(NCc1cccnc1)c1ccc(-c2cccc(Cl)c2Cl)o1,,"inconclusive: 35.5 µM [falling, single point]"

# Structural class: those above containing a nitro group on carbon
SMILES,"activity change, negative = inhibition",Potency
Cc1cc(C)c(S(=O)(=O)N2CCN(C(=O)c3ccc(-n4cncn4)c([N+](=O)[O-])c3)CC2)c(C)c1,inconclusive: 6.4%,
CC[C@H](C)[C@@H]1NC(=O)c2cc([N+](=O)[O-])cc(I)c2NCC[C@@H](C(N)=O)NC(=O)[C@H](CCCN=C(N)N)NC1=O,inactive,
Cc1ccccc1NC(=O)Cc1nc(COC(=O)c2cc([N+](=O)[O-])ccc2NCCO)cs1,,"inconclusive: 14.6 µM [falling, partial curve]"
